These results are taken from patent publication US10383847B2 (priority 2012, dated 2019).

The data set concerns human kinases. Description: competition binding kinase scan, selectivity score. Particulars: 385 non-mutant kinases, screening concentration 50000 nm.

In the case of `CN1C(=O)/C(=C2/C(=O)Nc3ccccc32)c2ccccc21` [Meisoindigo, 3-(1,2-dihydro-2-oxo-3H-indol-3-ylidene)-1,3-dihydro-1-methyl-2H-indol-2-one], the “Number of Hits” value is given as 0 (S(1): % Ctrl <1), 0 (S(10): % Ctrl <10) and 1 (S(35): % Ctrl <35).
